In US8362033B1, “Compounds and methods to dysregulate CA2+ homeostasis for cancer treatment” (University of South Florida, priority 2008, dated 2013):
At least one structure is not confirmed: it was looked up by name or label, or the drawing left a doubt.

Protein sequences, listed by entry. Tags and fused reporters are not part of them.
UniProt O94759, whole entry: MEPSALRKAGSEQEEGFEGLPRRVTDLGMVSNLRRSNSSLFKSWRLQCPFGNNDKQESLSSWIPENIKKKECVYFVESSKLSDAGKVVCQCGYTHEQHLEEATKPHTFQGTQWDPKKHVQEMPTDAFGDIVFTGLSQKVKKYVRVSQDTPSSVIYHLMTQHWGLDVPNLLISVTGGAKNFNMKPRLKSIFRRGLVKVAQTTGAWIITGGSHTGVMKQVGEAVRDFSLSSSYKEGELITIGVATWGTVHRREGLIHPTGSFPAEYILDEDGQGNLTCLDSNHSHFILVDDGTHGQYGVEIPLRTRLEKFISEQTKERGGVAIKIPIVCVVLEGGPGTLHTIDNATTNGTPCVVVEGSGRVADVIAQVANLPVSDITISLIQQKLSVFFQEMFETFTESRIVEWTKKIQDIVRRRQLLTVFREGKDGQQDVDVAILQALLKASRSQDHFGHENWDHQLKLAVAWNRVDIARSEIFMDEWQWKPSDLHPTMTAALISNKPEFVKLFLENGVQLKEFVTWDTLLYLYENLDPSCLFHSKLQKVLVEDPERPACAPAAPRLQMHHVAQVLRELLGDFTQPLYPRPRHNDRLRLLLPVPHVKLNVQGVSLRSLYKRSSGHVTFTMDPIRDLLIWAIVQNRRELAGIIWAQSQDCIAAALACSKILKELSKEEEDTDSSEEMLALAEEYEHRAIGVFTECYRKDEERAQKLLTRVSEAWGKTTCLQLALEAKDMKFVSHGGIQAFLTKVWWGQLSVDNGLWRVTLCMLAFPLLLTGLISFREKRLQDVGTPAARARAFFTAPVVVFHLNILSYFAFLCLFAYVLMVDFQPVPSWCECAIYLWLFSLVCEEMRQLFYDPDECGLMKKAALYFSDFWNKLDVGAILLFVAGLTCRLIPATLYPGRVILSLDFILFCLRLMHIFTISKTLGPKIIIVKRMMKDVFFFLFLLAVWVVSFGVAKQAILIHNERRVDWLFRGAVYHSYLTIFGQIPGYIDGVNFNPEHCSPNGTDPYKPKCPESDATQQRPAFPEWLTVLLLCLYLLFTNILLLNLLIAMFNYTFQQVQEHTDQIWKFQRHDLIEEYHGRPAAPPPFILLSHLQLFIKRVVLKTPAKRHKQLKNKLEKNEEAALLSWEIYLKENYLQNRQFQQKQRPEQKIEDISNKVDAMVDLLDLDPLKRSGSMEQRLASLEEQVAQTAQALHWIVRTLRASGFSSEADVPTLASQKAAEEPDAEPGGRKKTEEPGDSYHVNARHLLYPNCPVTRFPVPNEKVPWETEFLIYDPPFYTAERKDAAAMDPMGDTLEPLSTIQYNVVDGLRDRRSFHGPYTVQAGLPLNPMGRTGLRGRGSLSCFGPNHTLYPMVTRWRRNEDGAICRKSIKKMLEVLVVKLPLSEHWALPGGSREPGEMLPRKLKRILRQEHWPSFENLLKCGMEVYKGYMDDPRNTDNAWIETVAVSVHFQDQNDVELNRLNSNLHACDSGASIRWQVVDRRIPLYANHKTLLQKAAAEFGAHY
UniProt Q96QT4, whole entry, species assumed: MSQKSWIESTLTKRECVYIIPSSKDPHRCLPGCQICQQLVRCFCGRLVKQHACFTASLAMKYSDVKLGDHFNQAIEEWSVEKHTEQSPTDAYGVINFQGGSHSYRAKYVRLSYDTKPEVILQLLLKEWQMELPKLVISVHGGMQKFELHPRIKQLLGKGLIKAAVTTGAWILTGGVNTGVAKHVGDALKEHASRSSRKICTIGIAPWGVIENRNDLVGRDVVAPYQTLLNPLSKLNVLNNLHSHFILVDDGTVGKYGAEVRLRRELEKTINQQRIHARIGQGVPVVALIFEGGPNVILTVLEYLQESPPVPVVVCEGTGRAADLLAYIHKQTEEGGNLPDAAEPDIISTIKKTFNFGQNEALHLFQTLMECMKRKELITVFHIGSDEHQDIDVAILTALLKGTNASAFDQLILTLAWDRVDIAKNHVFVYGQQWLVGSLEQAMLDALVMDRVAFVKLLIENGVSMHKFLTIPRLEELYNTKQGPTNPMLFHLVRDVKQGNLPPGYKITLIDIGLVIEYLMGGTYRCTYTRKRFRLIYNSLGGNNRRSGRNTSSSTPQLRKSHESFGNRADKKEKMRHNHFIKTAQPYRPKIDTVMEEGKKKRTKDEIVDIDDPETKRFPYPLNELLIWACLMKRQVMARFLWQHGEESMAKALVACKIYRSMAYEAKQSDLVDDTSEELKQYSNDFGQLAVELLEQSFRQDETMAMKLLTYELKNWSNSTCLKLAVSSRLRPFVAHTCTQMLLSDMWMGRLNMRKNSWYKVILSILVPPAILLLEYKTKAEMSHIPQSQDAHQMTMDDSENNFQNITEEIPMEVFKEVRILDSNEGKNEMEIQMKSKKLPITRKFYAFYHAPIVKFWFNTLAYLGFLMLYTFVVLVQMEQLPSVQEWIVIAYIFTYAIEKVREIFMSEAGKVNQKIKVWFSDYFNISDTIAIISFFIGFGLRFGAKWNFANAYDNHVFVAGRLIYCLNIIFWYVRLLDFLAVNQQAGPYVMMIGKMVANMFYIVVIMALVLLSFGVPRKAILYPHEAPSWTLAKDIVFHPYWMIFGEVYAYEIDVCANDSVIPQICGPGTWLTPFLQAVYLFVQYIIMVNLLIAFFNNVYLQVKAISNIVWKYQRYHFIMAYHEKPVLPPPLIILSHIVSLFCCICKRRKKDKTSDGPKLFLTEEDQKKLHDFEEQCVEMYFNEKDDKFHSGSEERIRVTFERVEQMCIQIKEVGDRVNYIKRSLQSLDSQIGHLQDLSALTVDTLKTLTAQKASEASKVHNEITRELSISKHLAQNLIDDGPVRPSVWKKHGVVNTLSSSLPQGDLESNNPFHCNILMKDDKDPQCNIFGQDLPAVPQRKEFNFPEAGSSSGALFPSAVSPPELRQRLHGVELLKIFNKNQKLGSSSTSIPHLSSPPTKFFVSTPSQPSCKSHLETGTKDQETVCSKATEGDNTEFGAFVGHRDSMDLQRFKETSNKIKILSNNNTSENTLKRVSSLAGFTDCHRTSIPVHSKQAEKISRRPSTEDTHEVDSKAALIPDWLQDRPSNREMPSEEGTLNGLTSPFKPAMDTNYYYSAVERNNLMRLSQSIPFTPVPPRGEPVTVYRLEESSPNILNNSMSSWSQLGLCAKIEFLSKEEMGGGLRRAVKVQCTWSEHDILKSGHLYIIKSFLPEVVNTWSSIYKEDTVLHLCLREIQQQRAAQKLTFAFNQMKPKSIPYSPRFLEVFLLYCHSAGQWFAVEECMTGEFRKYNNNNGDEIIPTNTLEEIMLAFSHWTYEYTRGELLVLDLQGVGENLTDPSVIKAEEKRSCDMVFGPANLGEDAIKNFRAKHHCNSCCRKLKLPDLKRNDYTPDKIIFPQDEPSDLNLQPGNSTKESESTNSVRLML

What was measured:
[1] = test system: 8226 R5; assay: Tipifarnib sensitivity of leukemia cell lines (Table 1); format: cell-based, human
[2] = test system: 8226 LR5; assay: as above; format: cell-based, human
[3] = target: T1, TRPM2 (Homo sapiens, UniProt O94759); assay: HEK 293 cells overexpressing TRPM2, effect of tipifarnib; format: cell-based; conditions: HEK 293 cells overexpressing TRPM2, data not shown
T1 construct: expressed in transfected cells; host or cells: HEK 293

[4] = test system: U937; assay: Tipifarnib sensitivity of leukemia cell lines (Table 1); format: cell-based
[5] = test system: 8226 cells; assay: Fura-2 intracellular Ca2+ fluorometry in 8226 cells; format: cell-based, human; conditions: 5 μM tipifarnib, compared with 8226/R5
[6] = test system: U937 cells; assay: Western blot of ER stress and apoptosis markers in fibronectin-adhered U937 cells; format: cell-based
[7] = target: TRPM7 (Homo sapiens, UniProt Q96QT4); assay: HEK 293 cells overexpressing TRPM7, effect of tipifarnib; format: cell-based; set-up: expressed in transfected cells; host or cells: HEK 293; conditions: HEK 293 cells overexpressing TRPM7, data not shown
[8] = test system: 8226 S; assay: Tipifarnib sensitivity of leukemia cell lines (Table 1); format: cell-based, human
[9] = test system: U937 cells; assay: Fura-2 intracellular Ca2+ fluorometry in adhered U937 cells; conditions: 5 μM tipifarnib
[10] = 1.25, 2.5 or 5 μM tipifarnib, 48 hr

SMILES: Cn1cncc1[C@@](N)(c1ccc(Cl)cc1)c1ccc2c(c1)c(-c1cccc(Cl)c1)cc(=O)n2C [tipifarnib, Tipifarnib]
- Tipifarnib sensitivity [1]: No
- Tipifarnib sensitivity [2]: Yes
- Direct effect on TRPM2 channels [3]: does not directly affect those channels
- Tipifarnib sensitivity [4]: Yes
- Elevation of [Ca2+]i [5]: significantly greater increases in [Ca^2+]i
- Degradation of PARP (caspase-3 substrate) [6, 10]: concomitant increase in degradation of the caspase-3 substrate
- Levels of inactive caspase-12 protein [6, 10]: dose dependent decrease in the levels of inactive caspase-12 protein
- Cleavage of caspase-4 ([6]; incubation in tipifarnib, data not shown): resulted in cleavage of caspase-4
- Direct effect on TRPM7 channels [7]: does not directly affect those channels
- Tipifarnib sensitivity [8]: Yes
- Elevation of [Ca2+]i ([9]; 10 μM FTI-277, 10 μM FTI-2153): evoked pronounced elevations
- Incubation time before elevations in [Ca2+]i occurred ([9]; not reversible upon washout): ~30 min
